Binding data for one substance are collected here from publication PMC5962775.

Chains of the proteins cited; added tags and fusions are not shown.
UniProt P69513: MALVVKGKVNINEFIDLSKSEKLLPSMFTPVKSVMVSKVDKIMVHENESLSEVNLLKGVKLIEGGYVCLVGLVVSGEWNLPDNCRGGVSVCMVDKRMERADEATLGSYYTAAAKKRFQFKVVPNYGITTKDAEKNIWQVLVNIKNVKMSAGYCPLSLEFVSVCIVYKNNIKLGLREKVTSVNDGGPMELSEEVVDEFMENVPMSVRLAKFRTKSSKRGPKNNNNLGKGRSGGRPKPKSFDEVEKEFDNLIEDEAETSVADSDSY

This experiment concerns the target Tomato mosaic virus 30-kDa movement protein (Tomato mosaic virus) (UniProt P69513). The experiment is described as follows: split reporter; BiFC with N-terminal (nV) and C-terminal (cV) fragments of Venus fused to the C-terminal end of the target proteins (pGWnV3 and pGWcV plasmids); N. benthamiana leaves bombarded, Venus fluorescence seen at 24 h post-bombardment by confocal laser microscopy; MP-nV + MP-cV and 126K-nV + 126K-cV also co-expressed with NtREM-DsRed; some samples stained with aniline blue.

Results are given in words; binding and its absence hold for the method and conditions named. Binding seen in cells or lysates may run through a third protein. Some entries that bind do so weakly or less than the wild type.

“Tomato mosaic virus 30-kDa movement protein (from UniProt P69513 1-264)”: the binding entry is listed as “binds”.
